Some of these results come from one statement about several compounds together. Bridge positions count the residues as written; N and C are the ends. Square brackets hold non-standard residues; d marks the D form. Peptide text beside a SMILES is read from it. Orn = NCCC[C@H](N)C(=O)O; Mpa = O=C(O)CCS
System: PP13
Experiment: PP13 level in maternal venous serum of pregnant women under tocolytic treatment, solid-phase sandwich ELISA
Assay type: in vivo, human
Settings: Example III, FIGS. 3 and 4: multiple doses; atosiban IV over 24 hours, nifedipine orally by tablets
Procedure: In all experiments, PP13 was measured (blinded to pregnancy outcome) in maternal venous serum by solid-phase sandwich ELISA assay. PP13 level was calibrated according to standard curves prepared from calibrated standards of recombinant PP13. Concentrations are given in pg PP13/ml serum.
This clinical study was approved by the medical center internal review ethical committee, and all women enrolled in the study provided informed consent to allow the use of a small volume of their blood to determine the level of PP13.

SMILES	transient increases in PP13 levels after each administration
CCOc1ccc(C[C@H]2NC(=O)CCSSC[C@@H](C(=O)N3CCC[C@H]3C(=O)N[C@@H](CCCN)C(=O)NCC(N)=O)NC(=O)[C@H](CC(N)=O)NC(=O)[C@H]([C@@H](C)O)NC(=O)[C@H]([C@@H](C)CC)NC2=O)cc1 [atosiban] ([Mpa][dY](Et)ITNCP[Orn]G-NH2; disulfide 1-6)	2-5 fold
COC(=O)C1=C(C)NC(C)=C(C(=O)OC)C1c1ccccc1[N+](=O)[O-] [nifedipine]	2-5 fold

— patent publication US7776557B2, “Method for monitoring tocolytic treatment” (Diagnostic Technologies Ltd., priority 2006, dated 2010)
